The record followed here is article PMC12670160, “A drug-repurposing screen of FDA- and EMA-approved drugs identifies two NF-κB inhibitors active against eumycetoma” (Journal of Antimicrobial Chemotherapy, 2025).

Structures are written as SMILES. Counter-ions that a name gives are not always drawn. In all, about 5,300 compounds went through this assay and about 130 (2.5%) showed an effect of 50% or more. Some of the results follow. Square brackets hold non-standard residues; d marks the D form. Peptide text beside a SMILES is read from it. NMeF = CN[C@@H](Cc1ccccc1)C(=O)O

The experiment concerns M. mycetomatis strain mm55. To be noted: primary screen, metabolic activity vs growth control; 96 h, 2 µM; inhibitor.
`CCN(C(=O)c1c(O)c2c(Cl)cccc2n(C)c1=O)c1ccccc1` [ONC0005087, laquinimod abr215062]: the “% viability” value stood at 73.14%. The result for `NC1CCN(c2cccc(Cl)n2)CC1` [ONC0000810, sr57227a] reads 65.46%. As for `Cc1cccc(-c2[nH]c(C(C)(C)C)nc2-c2ccc3c(c2)OCO3)n1` [ONC0005219, sb505124], the figure is 129%; as for `CC(NC(=O)c1ccccc1/N=C/c1c(O)ccc2ccccc12)c1ccccc1` (stereo not drawn) [ONC0000958, sirtinol], 77.53%. For `CC(C)(O)C(=O)Nc1ccc([N+](=O)[O-])c(C(F)(F)F)c1` [ONC0003818, 2hydroxyflutamide], the “% viability” value came out at 68.04%. As for `CCOc1ccccc1C(=O)O` [ONC0004472, 2ethoxybenzoicacid], the figure is 80.97%. For the compound `NC(Cc1c[nH]c2ccc(O)cc12)C(=O)O` (stereo not drawn) [ONC0004746, 5hydroxytryptophan 5htp], the “% viability” value turned out to be 110.5%. As for `Cc1ccc2c(c1)C1CN(C)CCC1N2` (stereo not drawn) [ONC0003732, stobadine], the figure is 111.5%; as for `CC(C)CC(=O)Nc1[nH]nc2c1CN(C(=O)C1CCN(C)CC1)C2(C)C` [ONC0004869, pha793887], 94.75%.

For `COc1cc(C(=O)NCc2ccc(OCCN(C)C)cc2)cc(OC)c1OC` [ONC0000535, trimethobenzamide hydrochloride], the “% viability” value was 87.2%. The result for `CCCN1CCCC[C@H]1C(=O)Nc1c(C)cccc1C` [ONC0004565, ropivacaine hcl] reads 78.48%; that for `NCCCCCC(O)(P(=O)(O)O)P(=O)(O)O` [ONC0002151, neridronate sodium salt], 89.33%. The result for `Nc1n[n+]([O-])c2ccccc2[n+]1[O-]` [ONC0001131, tirapazamine] reads 75.1%; that for `c1cnc(N2CCN(Cc3ccc4c(c3)OCO4)CC2)nc1` [ONC0000947, piribedil], 72.64%. With `C[C@@H](Nc1cc(F)cc(F)c1)c1cc(C(=O)N(C)C)cc2c(=O)cc(N3CCOCC3)oc12` [ONC0004558, azd8186], the “% viability” value was 76.07%. As for `C[C@](N)(Cc1ccc(O)c(O)c1)C(=O)O` [ONC0000384, methyldopa], the figure is 65.99%; as for `COC(=O)/C=C/c1cccc(N(Cc2ccc(-c3ccc(N(C)C)cc3)cc2)C(=O)C2CCCCC2)c1` [ONC0003149, fexaramine], 78.38%. As for `CCCC1C(=O)N2C(N(C)C)=Nc3ccc(C)cc3N2C1=O` (stereo not drawn) [ONC0002278, azapropazone], the figure is 76.7%. The result for `COc1cc(N2CCC(O)CC2)ccc1Nc1cc(Nc2ccccc2S(=O)(=O)C(C)C)c2cc[nH]c2n1` [ONC0001327, mps1in1] reads 116.6%; that for `COc1cc(C(=O)N2CCC(N3CCN(C)CC3)CC2)ccc1Nc1ncc2c(n1)N(C)c1ccccc1C(=O)N2C` [ONC0000864, lrrk2in1], 80.6%. `Clc1ccc(C(Cn2ccnc2)OCc2ccsc2Cl)c(Cl)c1` (stereo not drawn) [Tioconazole]: the “% viability” value was determined as 3.335%. Take `C[C@H]1c2cccc(O)c2C(=O)C2=C(O)[C@]3(O)C(=O)C(C(N)=O)=C(O)[C@@H](N(C)C)[C@@H]3[C@@H](O)[C@@H]21` [ONC0000927, doxycycline hyclate]: the “% viability” value came to 70.17%. As for `COc1cc(Br)c(S(=O)(=O)Nc2ccc(C(F)(F)F)c(O[C@@H]3CCN(C)C3)c2)cc1OC` [ONC0000118, sb706375], the figure is 88.32%; as for `Cc1[nH]c2ccc(F)cc2c1-c1nc2c3cccnc3c3ncccc3c2[nH]1` [ONC0001815, apto253], 95.12%. As for `CSCC[C@H](NC(=O)[C@H](CC(C)C)NC(=O)[C@@H](Cc1c[nH]c2ccccc12)NC(=O)[C@H](Cc1ccccc1)N(C)C(=O)[C@@H](Cc1c[nH]c2ccccc12)NC(=O)[C@@H](N)CCCNC(=N)N)C(N)=O` [ONC0003409, antagonistg] (H-R[dW][NMeF][dW]LM-NH2), the “% viability” value amounted to 66.36%. As for `Cc1ccc(-c2cn3c4c(sc3n2)CCCC4)cc1` [ONC0002473, pifithrincyclic], the figure is 114.3%; as for `CCCC(=O)c1cc(F)ccc1OCC(O)CNC(C)(C)C` (stereo not drawn) [ONC0005408, butofilolol], 80.64%; as for `CS(=O)(=O)c1ccc(-c2cn3ccccc3n2)cc1` [ONC0002352, zolimidine], 42.05%.

With `CCCCCCCCCCCCOCCOCCOCCOCCOCCOCCOCCOCCOCCO` [ONC0002139, polidocanol], the “% viability” value turned out to be 78.72%. On to `Cc1c(C(=O)NN2CCCCC2)nn(-c2ccc(Cl)cc2Cl)c1-c1ccc(Cl)cc1` [ONC0005115, rimonabant sr141716], for which the “% viability” value amounted to 138.4%.

Regarding `COc1nc2ccc(Br)cc2cc1[C@@H](c1ccccc1)[C@@](O)(CCN(C)C)c1cccc2ccccc12` [ONC0005571, bedaquiline], the “% viability” value was found to be 85.46%. Regarding `CNc1cc2[nH]c(=O)n(-c3ccc(NC(=O)NS(=O)(=O)c4ccc(Cl)s4)cc3)c(=O)c2cc1F` [ONC0000251, elinogrel], the “% viability” value was determined as 58.04%. Regarding `CC(C)=CCC[C@](C)(O)[C@H]1CC[C@]2(C)[C@@H]1[C@H](O)C[C@@H]1[C@@]3(C)CC[C@H](O)C(C)(C)[C@@H]3CC[C@]12C` [ONC0000922, 20sprotopanaxadiol], the “% viability” value was 94.76%. The result for `COc1cc2c(Nc3ccc(Br)cc3F)ncnc2cc1OCC1CCN(C)CC1` [ONC0004515, vandetanib zd6474] reads 76.73%; that for `CCCCCCCCCCCCCC[C@@H](O)[C@@H](O)[C@@H](N)CO` [ONC0003465, phytosphingosine], 45.49%; that for `CCOC(=O)COc1ccc2c(=O)cc(-c3ccccc3)oc2c1` [ONC0004225, efloxate], 72.53%. The result for `Cc1ccc(NC(=O)c2ccc(CN3CCN(C)CC3)cc2)cc1Nc1nccc(-c2cccnc2)n1` [ONC0004927, imatinib mesylate sti571] reads 86.58%; that for `Cc1cc2nc3c(=O)[nH]c(=O)nc-3n(C)c2cc1C=O` [ONC0004114, ro082750], 103.6%. With `CC(C)C(=O)Oc1ccc(CO)cc1[C@H](CCN(C(C)C)C(C)C)c1ccccc1` [ONC0004986, fesoterodine fumarate], the “% viability” value is given as 109.4%. As for `CSc1cc2c(cc1C(F)(F)F)N(C(=O)Nc1cccnc1)CC2` [ONC0003013, sb221284], the figure is 93.21%; as for `N=C(N)c1ccc(N2CCN(C3CCN(CC(=O)O)CC3)CC2)cc1` [ONC0001428, gr144053], 85.04%; as for `Cc1oc(-c2ccccc2)nc1CCOc1ccc(CC2SC(=O)NC2=O)c2sccc12` (stereo not drawn) [ONC0000030, edaglitazone], 100.5%. As for `CCc1cc2c(cc1N1CCC(N3CCOCC3)CC1)C(C)(C)c1[nH]c3cc(C#N)ccc3c1C2=O` [ONC0004985, ch5424802], the “% viability” value worked out at 99.82%. The result for `CCc1c2c(nc3ccc(O)cc13)-c1cc3c(c(=O)n1C2)COC(=O)[C@]3(O)CC` [ONC0003633, sn38] reads 66%; that for `Oc1noc2c1CCNC2` [ONC0001438, gaboxadol], 55.34%. Take `CCOC(=O)O[C@]1(C(=O)OCCl)CC[C@H]2[C@@H]3CCC4=CC(=O)C=C[C@]4(C)[C@H]3[C@@H](O)C[C@@]21C` [ONC0004855, loteprednol etabonate]: the “% viability” value turned out to be 113.8%. As for `Cc1ncc(CN2CC=C(c3ccccc3)CC2)c(N)n1` [ONC0003615, ro105824], the figure is 72.51%; as for `COc1ccc2c(c1)c(CC(=O)O)c(C)n2C(=O)c1ccc(Cl)cc1` [ONC0000394, indomethacin], 69.22%; as for `CCCC[N+]1(C)[C@@H]2C[C@@H](OC(=O)[C@@H](CO)c3ccccc3)C[C@H]1[C@@H]1O[C@@H]12` (stereo partly drawn) [ONC0005197, butylscopolamine bromide scopolamine butylb], 109.1%. As to `CNC(=O)c1cc(Oc2ccc(NC(=O)Nc3cc(C(C)(C)C)nn3-c3ccc4ncccc4c3)c(F)c2)ccn1` [ONC0004608, dcc2036 rebastinib], the “% viability” value is 105.1%.

In the case of `OC[C@H]1O[C@H](O[C@]2(CCl)O[C@H](CCl)[C@@H](O)[C@@H]2O)[C@H](O)[C@@H](O)[C@H]1Cl` [ONC0004000, sucralose], the “% viability” value is 82.48%.

For the compound `CCC/N=C1\S/C(=C\c2ccc(OC[C@H](O)CO)c(Cl)c2)C(=O)N1c1ccccc1C` [ONC0001053, ponesimod], the “% viability” value was found to be 79.17%. As for `O=C(C1CCCCC1)N1CC(=O)N2CCc3ccccc3C2C1` (stereo not drawn) [ONC0000502, praziquantel], the “% viability” value is on record as 91.73%. For the compound `Cc1oc(-c2ccccc2)nc1CCC(=O)c1ccc(CC2SC(=O)NC2=O)cc1` (stereo not drawn) [ONC0003800, darglitazone], the “% viability” value was 110.3%. The result for `O=S(=O)(O)c1ccc(O)cc1` [ONC0002572, 4phenolsulfonic acid sodium salt dihydrate] reads 87.37%. As for `C[C@]1(O)C[C@@H](c2nc(-c3ccc4ccc(-c5ccccc5)nc4c3)c3c(N)nccn32)C1` [ONC0004719, osi906 linsitinib], the figure is 125.6%; as for `C(=C\c1ccccc1)/CN1CCN(C(c2ccccc2)c2ccccc2)CC1` [ONC0003130, cinnarazine], 70.81%; as for `COc1ccc(C(=O)N2CCCC2=O)cc1` [ONC0003147, aniracetam], 64.68%. With `CN(C)CCCC(=O)Nc1ccc(C(=O)Nc2cccc(Nc3ncc(Cl)c(-c4c[nH]c5ccccc45)n3)c2)cc1` [ONC0000993, thz1r], the “% viability” value amounted to 83.26%. With `O=C(Nc1ccccc1-c1cn2c(CN3CCNCC3)csc2n1)c1cnc2ccccc2n1` [ONC0004726, srt1720 hcl], the “% viability” value stood at 103.6%.
